Results deposited as PubChem BioAssay AID652272 (Drosophila RNAi Screening Center, 2013).
In all, the deposit lists about 21,000 reagents; this is an unselected part of those that have a named target and a result. Over the whole deposit, 503 (2.4%) were called active. 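Raw plate light values, not normalised; calls rest on replicate z-scores that were not deposited; hits include reporter decreases as well as increases.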 A number with no mark means an inactive call. A plus sign joins genes that one reagent is predicted to hit. Not stated in the record: the amount of reagent, the time to read-out.

Purpose: 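Finding fly genes that regulate Hedgehog signal transduction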 (primary screen)
Cell system: Drosophila clone 8 (Cl8) cells
Reagent: long dsRNA against Drosophila genes
Measurement: 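Plate reader light from a firefly reporter under a ptc promoter fragment that responds to Hedgehog, with Renilla light as transfection reference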
Scale: firefly Hh reporter signal: higher = more ptc reporter light; Renilla reference signal: higher = more Renilla control light
Rule for the call: 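Called a hit if the two-replicate mean z-score lies below -2 or above +3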
Calls: active = hit: reporter lowered or raised; inactive = not a hit

zfh2 [SID104196970]
- firefly Hh reporter signal, replicate 1: 79800
- firefly Hh reporter signal, replicate 2: 62531
- Renilla reference signal, replicate 1: 2065
- Renilla reference signal, replicate 2: 2125

VhaPPA1-1 [SID104195962]
- firefly Hh reporter signal, replicate 1: 1.21e5
- firefly Hh reporter signal, replicate 2: 59616
- Renilla reference signal, replicate 1: 4705
- Renilla reference signal, replicate 2: 2400

Wdr62 [SID104179873]
- firefly Hh reporter signal, replicate 1: 7.38e5
- firefly Hh reporter signal, replicate 2: 3.39e5
- Renilla reference signal, replicate 1: 37329
- Renilla reference signal, replicate 2: 13584

Wdr62 [SID104179874]
- firefly Hh reporter signal, replicate 1: 7.74e5
- firefly Hh reporter signal, replicate 2: 2.76e5
- Renilla reference signal, replicate 1: 41654
- Renilla reference signal, replicate 2: 11792

Wdr62 [SID104180493]
- firefly Hh reporter signal, replicate 1: 92673
- firefly Hh reporter signal, replicate 2: 33510
- Renilla reference signal, replicate 1: 3703
- Renilla reference signal, replicate 2: 1480

vers [SID104190507]
- firefly Hh reporter signal, replicate 1: 66514
- firefly Hh reporter signal, replicate 2: 44242
- Renilla reference signal, replicate 1: 3098
- Renilla reference signal, replicate 2: 2227

run [SID104200376]
- firefly Hh reporter signal, replicate 1: 1.59e5
- firefly Hh reporter signal, replicate 2: 1.99e5
- Renilla reference signal, replicate 1: 4100
- Renilla reference signal, replicate 2: 3995

CG15322 [SID104200472]
- firefly Hh reporter signal, replicate 1: 63741
- firefly Hh reporter signal, replicate 2: 1.30e5
- Renilla reference signal, replicate 1: 2228
- Renilla reference signal, replicate 2: 4727

Nmnat [SID104194436]
- firefly Hh reporter signal, replicate 1: 5.32e5
- firefly Hh reporter signal, replicate 2: 1.15e5
- Renilla reference signal, replicate 1: 26593
- Renilla reference signal, replicate 2: 3846

CG9062 [SID104187119]
- firefly Hh reporter signal, replicate 1: 86201
- firefly Hh reporter signal, replicate 2: 32052
- Renilla reference signal, replicate 1: 2220
- Renilla reference signal, replicate 2: 2608

Already shown: entries from further up.
CG15322 [SID104200472]
- firefly Hh reporter signal, replicate 1: 63741
- firefly Hh reporter signal, replicate 2: 1.30e5
- Renilla reference signal, replicate 1: 2228
- Renilla reference signal, replicate 2: 4727

Nmnat [SID104194436]
- firefly Hh reporter signal, replicate 1: 5.32e5
- firefly Hh reporter signal, replicate 2: 1.15e5
- Renilla reference signal, replicate 1: 26593
- Renilla reference signal, replicate 2: 3846

CG9062 [SID104187119]
- firefly Hh reporter signal, replicate 1: 86201
- firefly Hh reporter signal, replicate 2: 32052
- Renilla reference signal, replicate 1: 2220
- Renilla reference signal, replicate 2: 2608

More records:
Rab9Db + Rab9D + Rab9Fa + 1 more [SID104197454]
- firefly Hh reporter signal, replicate 1: 4.89e5
- firefly Hh reporter signal, replicate 2: 1.92e5
- Renilla reference signal, replicate 1: 29257
- Renilla reference signal, replicate 2: 4274

UbcE2H [SID104198013]
- firefly Hh reporter signal, replicate 1: 1.12e5
- firefly Hh reporter signal, replicate 2: 88296
- Renilla reference signal, replicate 1: 2309
- Renilla reference signal, replicate 2: 1940

CG8321 [SID104186940]
- firefly Hh reporter signal, replicate 1: 52090
- firefly Hh reporter signal, replicate 2: 61649
- Renilla reference signal, replicate 1: 2839
- Renilla reference signal, replicate 2: 2374

CG32568 [SID104199705]
- firefly Hh reporter signal, replicate 1: 56967
- firefly Hh reporter signal, replicate 2: 1.22e5
- Renilla reference signal, replicate 1: 1644
- Renilla reference signal, replicate 2: 5356

CG6938 [SID104190544]
- firefly Hh reporter signal, replicate 1: 50304
- firefly Hh reporter signal, replicate 2: 46348
- firefly Hh reporter signal, replicate 3: 61606
- Renilla reference signal, replicate 1: 3947
- Renilla reference signal, replicate 2: 4234

CG1236 [SID104191995]
- firefly Hh reporter signal, replicate 1: 1.59e5
- firefly Hh reporter signal, replicate 2: 1.55e5
- Renilla reference signal, replicate 1: 7456
- Renilla reference signal, replicate 2: 5475

CG12065 [SID104197590]
- firefly Hh reporter signal, replicate 1: 91417
- firefly Hh reporter signal, replicate 2: 82508
- Renilla reference signal, replicate 1: 2408
- Renilla reference signal, replicate 2: 2292

CG12065 [SID104197591]
- firefly Hh reporter signal, replicate 1: 93024
- firefly Hh reporter signal, replicate 2: 3.12e5
- Renilla reference signal, replicate 1: 2756
- Renilla reference signal, replicate 2: 11805

HmgD [SID104184411]
- firefly Hh reporter signal, replicate 1: 1.36e5
- firefly Hh reporter signal, replicate 2: 84853
- Renilla reference signal, replicate 1: 5659
- Renilla reference signal, replicate 2: 3764

CG32344 [SID104188370]
- firefly Hh reporter signal, replicate 1: 79113
- firefly Hh reporter signal, replicate 2: 57313
- Renilla reference signal, replicate 1: 5101
- Renilla reference signal, replicate 2: 3142

I-3 [SID104200271]
- firefly Hh reporter signal, replicate 1: 75974
- firefly Hh reporter signal, replicate 2: 1.87e5
- Renilla reference signal, replicate 1: 3521
- Renilla reference signal, replicate 2: 8691
